Assay results as given in publication PMC11066281.
No constants are given. Whether binding was seen depends on the method and setting. For some assays here: In cells and extracts the contact can be indirect. Some binding calls cover weakened binding; strength is not graded here. Where a sequence is shown, tags or fusion partners need not be part of it. Values belong to the binder of their own block, whether it stands above or below them.

Sequences of proteins named here, by UniProt entry; tags and fusion partners are left off.
UniProt Q94CL7: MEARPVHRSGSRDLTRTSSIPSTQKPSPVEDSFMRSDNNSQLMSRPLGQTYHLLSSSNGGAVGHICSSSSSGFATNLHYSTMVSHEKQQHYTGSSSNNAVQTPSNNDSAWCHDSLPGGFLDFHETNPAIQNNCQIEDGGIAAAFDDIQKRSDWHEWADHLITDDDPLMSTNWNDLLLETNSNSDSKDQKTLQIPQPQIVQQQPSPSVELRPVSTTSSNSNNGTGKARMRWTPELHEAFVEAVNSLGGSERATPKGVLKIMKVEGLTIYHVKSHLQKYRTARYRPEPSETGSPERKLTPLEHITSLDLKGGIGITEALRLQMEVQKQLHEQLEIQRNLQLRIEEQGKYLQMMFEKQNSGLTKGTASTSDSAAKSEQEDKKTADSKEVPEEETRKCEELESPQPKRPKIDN

Legend:
[1] = target: PHOSPHATE RESPONSE 1 (PHR1) fused to the N-terminal half of luciferase (Arabidopsis thaliana) (UniProt Q94CL7); assay: split reporter; luciferase complementation imaging (LCI): nLUC and cLUC fusions co-expressed in leaves of N. benthamiana under the 35S CaMV promoter
[2] = target: T1, PHR1-like 1 (PHL1) fused to the C-terminal half of luciferase (Arabidopsis thaliana) (UniProt Q8GUN5); assay: as above
T1 sequence: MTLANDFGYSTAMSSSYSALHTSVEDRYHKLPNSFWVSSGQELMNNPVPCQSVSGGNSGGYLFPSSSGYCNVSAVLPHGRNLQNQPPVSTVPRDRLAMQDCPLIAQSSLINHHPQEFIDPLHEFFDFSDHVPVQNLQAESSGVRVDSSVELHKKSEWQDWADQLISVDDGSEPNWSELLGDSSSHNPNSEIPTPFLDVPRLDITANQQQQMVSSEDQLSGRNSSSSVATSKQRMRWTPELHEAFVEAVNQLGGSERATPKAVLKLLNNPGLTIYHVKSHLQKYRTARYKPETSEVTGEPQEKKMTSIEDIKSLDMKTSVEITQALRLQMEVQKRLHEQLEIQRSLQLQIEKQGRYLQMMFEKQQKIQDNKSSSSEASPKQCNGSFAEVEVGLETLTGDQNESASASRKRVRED

[3] = target: PHL4 fused to a half of luciferase (PHL4-cLUC or PHL4-nLUC) (Arabidopsis thaliana) (UniProt Q8GXC2); assay: as above
[4] = target: T2, PHL1 fused to a half of YFP (BiFC construct) (Arabidopsis thaliana) (UniProt Q8GUN5); assay: split reporter; bimolecular fluorescence complementation (BiFC): nYFP and cYFP fusions in leaves of N. benthamiana
T2 sequence: T1 sequence

[5] = target: PHL4 fused to a half of YFP (BiFC construct) (Arabidopsis thaliana) (UniProt Q8GXC2); assay: as above
[6] = target: PHR1 fused to the DNA-binding domain of GAL4 (Arabidopsis thaliana) (UniProt Q94CL7); assay: two-hybrid; Matchmaker GAL4 system, yeast strain AH109; pGBKT7 (BD) and pGADT7 (AD) fusions; selection on SD/-Trp/-Leu/-His and SD/-Trp/-Leu/-His/-Ade
[7] = target: T3, PHL1 fused to the DNA-binding domain of GAL4 (Arabidopsis thaliana) (UniProt Q8GUN5); assay: as above
T3 sequence: T1 sequence

binding [1]: binds
binding [2]: binds
binding [3]: binds
B2: PHL4 fused to a half of luciferase (PHL4-cLUC or PHL4-nLUC) (protein, UniProt Q8GXC2 1-397)
chain: MIPNDDDDANSMKNYPLNDDDANSMKNYPLNDDDANSMENYPLRSIPTELSHTCSLIPPSLPNPSEAAADMSFNSELNQIMARPCDMLPANGGAVGHNPFLEPGFNCPETTDWIPSPLPHIYFPSGSPNLIMEDGVIDEIHKQSDLPLWYDDLITTDEDPLMSSILGDLLLDTNFNSASKVQQPSMQSQIQQPQAVLQQPSSCVELRPLDRTVSSNSNNNSNSNNAAAAAKGRMRWTPELHEVFVDAVNQLGGSNEATPKGVLKHMKVEGLTIFHVKSHLQKYRTAKYIPVPSEGSPEARLTPLEQITSDDTKRGIDITETLRIQMEHQKKLHEQLESLRTMQLRIEEQGKALLMMIEKQNMGFGGPEQGEKTSAKTPENGSEESESPRPKRPRNEE

binding [6]: binds
binding [7]: binds
B4: PHL4 fused to the transcriptional activation domain of GAL4 (protein, UniProt Q8GXC2 1-397)
chain: B2 chain

Further lines, the binder ahead of its results:

B1: PHR1-like 1 (PHL1) fused to the C-terminal half of luciferase (protein, UniProt Q8GUN5 1-413)
chain: T1 sequence
binding [1]: binds

B3: PHL4 fused to a half of YFP (BiFC construct) (protein, UniProt Q8GXC2 1-397)
chain: B2 chain
binding [4]: binds
binding [5]: binds
